For the assay, the target named is T1, NifH (bacterial two-hybrid fusion) (K. oxytoca) (UniProt P00458).
T1 sequence: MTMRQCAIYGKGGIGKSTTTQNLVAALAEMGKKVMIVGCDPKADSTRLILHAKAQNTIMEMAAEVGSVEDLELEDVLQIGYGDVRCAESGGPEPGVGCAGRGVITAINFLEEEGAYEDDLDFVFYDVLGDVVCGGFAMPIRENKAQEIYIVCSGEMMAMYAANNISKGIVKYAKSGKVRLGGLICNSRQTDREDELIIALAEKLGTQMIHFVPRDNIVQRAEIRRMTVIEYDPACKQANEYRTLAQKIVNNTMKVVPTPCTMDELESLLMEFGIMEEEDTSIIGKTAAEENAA
The assay can be described thus: two-hybrid; bacterial two-hybrid (BTH), fusions to the T18 and T25 fragments of B. pertussis adenylate cyclase (pUT18C, pKT25) in E. coli BTH101; preculture in LB with 200 uM IPTG for 48 h, spotted on LB with X-gal, 30°C, 12 h; blue colour.

This is an account of results in publication PMC12691677.

Results are given in words; binding and its absence hold for the method and conditions named. Binding calls can cover weak binding; strength is not graded here. Tags and fused reporters may be left off the sequences shown.

As for “NifMc (C-terminal truncated NifM, bacterial two-hybrid fusion) (K. oxytoca) (domain or fragment)”, the binding result was “no binding”. For “NifMn (N-terminal truncated NifM, bacterial two-hybrid fusion) (K. oxytoca) (domain or fragment)” the value was “binds”.
